Reference: patent publication US20050032696A1
These are yes or no findings as the source states them, for the method shown. Binding seen in cells or lysates may run through a third protein. Some entries that bind do so weakly or less than the wild type. Sequences can lack the tags named with a protein.

Protein sequences, listed by entry. Tags and fused reporters are not part of them.
UniProt Q8CFN5: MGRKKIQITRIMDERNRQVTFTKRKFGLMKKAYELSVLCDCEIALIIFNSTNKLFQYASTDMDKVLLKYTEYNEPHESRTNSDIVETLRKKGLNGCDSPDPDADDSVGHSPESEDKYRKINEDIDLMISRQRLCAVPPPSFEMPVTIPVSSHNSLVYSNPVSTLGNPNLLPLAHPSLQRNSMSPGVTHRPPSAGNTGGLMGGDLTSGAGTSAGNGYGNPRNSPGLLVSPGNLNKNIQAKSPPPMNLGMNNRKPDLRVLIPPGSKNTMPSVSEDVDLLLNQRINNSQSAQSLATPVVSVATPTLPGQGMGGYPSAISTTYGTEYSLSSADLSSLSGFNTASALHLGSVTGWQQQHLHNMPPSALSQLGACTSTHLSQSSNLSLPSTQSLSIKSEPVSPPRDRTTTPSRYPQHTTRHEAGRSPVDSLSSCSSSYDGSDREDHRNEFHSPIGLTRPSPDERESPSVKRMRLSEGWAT

Target: T1, GST-hMusTRD1α1944aa (human) (UniProt Q9UHL9)
T1 sequence: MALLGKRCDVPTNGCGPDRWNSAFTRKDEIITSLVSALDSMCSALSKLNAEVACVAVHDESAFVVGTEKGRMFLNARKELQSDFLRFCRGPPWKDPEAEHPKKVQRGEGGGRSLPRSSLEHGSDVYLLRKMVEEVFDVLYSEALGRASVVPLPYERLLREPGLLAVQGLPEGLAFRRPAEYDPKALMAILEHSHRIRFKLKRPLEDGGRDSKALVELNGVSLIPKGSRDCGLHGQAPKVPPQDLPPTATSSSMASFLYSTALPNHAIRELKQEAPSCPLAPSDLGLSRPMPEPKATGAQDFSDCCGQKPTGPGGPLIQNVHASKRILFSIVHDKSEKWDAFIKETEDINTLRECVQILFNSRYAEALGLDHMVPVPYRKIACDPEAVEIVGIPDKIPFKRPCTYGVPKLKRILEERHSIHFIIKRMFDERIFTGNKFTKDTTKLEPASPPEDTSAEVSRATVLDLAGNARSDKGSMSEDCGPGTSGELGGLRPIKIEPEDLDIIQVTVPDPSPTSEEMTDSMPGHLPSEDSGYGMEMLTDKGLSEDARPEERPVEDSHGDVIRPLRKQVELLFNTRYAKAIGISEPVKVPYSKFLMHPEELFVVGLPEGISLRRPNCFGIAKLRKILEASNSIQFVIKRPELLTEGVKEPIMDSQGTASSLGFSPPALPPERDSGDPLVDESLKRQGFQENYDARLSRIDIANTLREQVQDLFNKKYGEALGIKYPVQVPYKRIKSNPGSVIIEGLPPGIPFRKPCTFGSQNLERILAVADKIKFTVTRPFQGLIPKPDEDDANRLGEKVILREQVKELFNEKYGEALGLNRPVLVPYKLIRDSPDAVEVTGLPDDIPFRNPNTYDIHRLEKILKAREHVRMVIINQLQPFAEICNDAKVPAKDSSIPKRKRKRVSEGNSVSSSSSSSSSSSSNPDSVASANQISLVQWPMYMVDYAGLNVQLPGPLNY
Assay: GST pull-down, phosphorimaging (data not shown)

binding: binds
Substance: MEF2C (pcDNAMEF2C, mouse MEF2C cDNA) (from UniProt Q8CFN5 1-474)
